± gives the standard deviation. The list shows a part of the results, in another mix than the full data. The uncertainty is large for many entries. Some of the results follow.
What was measured:
[1] = test system: EfPiwi piRISC loaded with L1MC piRNA (26 nt); assay: pre-steady-state target cleavage rate (min^-1); guide: L1MC piRNA 5'p-UAACUAAAUACUAUGCAAGCUGUAGG; higher = faster piRNA-guided slicing of the target
Procedure, shortened: (§1)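 In HEPES–potassium acetate buffer at 33 °C, […] transcribed, DNA-blocked target RNA library was mixed with 1 nM active affinity-purified piRISC carrying one synthetic guide, with or without 500 nM GTSF1 partner protein, for 0–8 or 0–960 min. Uncleaved targets were sequenced and normalised to depth and to weakly complementary targets; three trials were pooled and k3 was capped at 0.0001 min^-1. The pre-steady-state cleavage rate followed from a burst-and-steady-state fit.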

[2] = test system: MILI (PIWIL2) piRISC loaded with L1MC piRNA (26 nt); assay: pre-steady-state target cleavage rate (min^-1); MIWI and MILI are mouse PIWI proteins and EfPiwi is from a freshwater sponge; tags in brackets are library labels; higher = faster piRNA-guided slicing of the target; conditions: guide: L1MC piRNA 5'p-UAACUAAAUACUAUGCAAGCUGUAGG;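 further: 1 nM active piRISC with 0.1 nM target library at 33 °C single turnover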
Procedure, shortened: as §1

[3] = auxiliary factor: 500 nM Ephydatia muelleri Gtsf1
[4] = auxiliary factor: none (no Gtsf1)
[5] = auxiliary factor: none (no GTSF1)
[6] = auxiliary factor: 500 nM mouse GTSF1

Row | Sequence | pre-steady-state target cleavage rate [1, 3] | pre-steady-state target cleavage rate [1, 4] | pre-steady-state target cleavage rate [2, 5] | pre-steady-state target cleavage rate [2, 6]
1 | UCCUGGAUGAGCUUGCAUUGUAUUUACUUA | 0.000743 ± 0.0058 | 0.0003 ± 0.022 | – | –
2 | UCCUGGAUGUGCUUGCAUAGUAUUUUGUAA | 0.000824 ± 0.0056 | 0.000331 ± 0.019 | – | –
3 | UCCUGGAACAGCUUGCAUAGGAUUUAGUUA | 0.00146 ± 0.0027 | 0.00109 ± 0.0078 | 0.0014 ± 0.0046 | –
4 | UCCUGGUACAGCUAGCAUAGUAUUUACUUA | 0.00108 ± 0.0036 | 0.000362 ± 0.02 | 0.00162 ± 0.0042 | –
5 | UCCUGGAACAGCUUGCAUAGUAUUUAGAUA | 0.00437 ± 0.0016 | 0.00153 ± 0.007 | 0.00197 ± 0.0031 | –
6 | UCCUGCUACACGAUGCAUAGUAUUUUCAAA | 0.00241 ± 0.0034 | 0.000212 ± 0.033 | 0.000586 ± 0.01 | –
7 | UCCUGCUACAGCUUGCAUAGUAUUUAGAUUA | 0.00658 ± 0.0023 | 0.00103 ± 0.0087 | 0.00212 ± 0.0036 | –
8 | UCCUGGAUGAGCUUGCAUAGUAUUUUGAUA | 0.00213 ± 0.0027 | 0.000905 ± 0.011 | 0.00132 ± 0.0041 | –
9 | UCCUGGAUCAGCUUGCAUAGUAUAUAGAUA | 0.00301 ± 0.0023 | 0.000518 ± 0.015 | 0.00156 ± 0.0041 | –
10 | UCCUGGAACAGCUUGCAUAGUAUUUAGCUA | 0.00179 ± 0.0023 | 0.000408 ± 0.02 | 0.000658 ± 0.01 | –
11 | UCCUGGAACAGCUUGGAUAGAAUUUAGUUA | 0.00165 ± 0.0029 | 0.000159 ± 0.021 | 0.00241 ± 0.003 | –
12 | UCCUCCUACAGCUUGCAUAGAAUUUAGUAA | 0.00443 ± 0.0022 | 0.00056 ± 0.0076 | 0.00132 ± 0.0036 | –
13 | UCCUGGUACACCUUGCAUACUAUUUAGUUA | 0.000865 ± 0.0062 | 0.000273 ± 0.034 | 0.00346 ± 0.0041 | –
14 | UCCUGGUACAGCUUGCUUAGUAUUUUGUUA | 0.00295 ± 0.0034 | 0.000639 ± 0.016 | 0.00209 ± 0.004 | –
15 | UCCUGGAUGACCUUGCAUAGAAUUUAGUUA | 0.000357 ± 0.023 | 0.000612 ± 0.014 | 0.000413 ± 0.0079 | –
16 | UCCUGGUACAGCUUGCAUAGUUUUUAGAAA | 0.00142 ± 0.006 | 0.000571 ± 0.022 | 0.00283 ± 0.0033 | –
17 | UCCUGGAACACCUUGCAUAGUAUUUAGAAA | 0.00182 ± 0.0029 | 0.000327 ± 0.021 | 0.00131 ± 0.005 | –
18 | UCCUCGUACAGCUUCCAUAGUAUUUAGUUA | 0.00339 ± 0.0014 | 0.000299 ± 0.014 | 0.00135 ± 0.0039 | –
19 | UCCUCCUACAGCUUGCAUAGUAUUGUAGUUA | 0.0032 ± 0.0012 | < 0.0001 | 0.00171 ± 0.005 | –
20 | UCCUGGAACAGCUUGCAUAGUAAUUUGUUA | 0.0032 ± 0.002 | 0.000276 ± 0.03 | 0.00222 ± 0.0035 | –
21 | UCCUCCUACAGCUUCCAUAGUAUUUAGUUA | 0.0042 ± 0.0019 | 0.000304 ± 0.015 | 0.00122 ± 0.0049 | –
22 | UCCUGGAUGUCGUUCCAUAGUAAUUAGUUA | < 0.0001 | 0.000185 ± 0.038 | 0.000213 ± 0.021 | –
23 | UCCUGGAACAGCUUGCAUAGUAUAUACUUA | 0.000524 ± 0.011 | 0.000311 ± 0.029 | 0.00146 ± 0.0046 | –
24 | UCCUGGAACAGCUUGCAUAGUAUUUUGAAA | 0.00294 ± 0.0022 | 0.000525 ± 0.012 | 0.0019 ± 0.0033 | –
25 | UCCUCCUACAGCUUGCAUUCUAUUUAGUUA | 0.00259 ± 0.0028 | 0.000508 ± 0.0088 | 0.0021 ± 0.0027 | –
26 | UCCUGCUACAGCCUUGCAUAGUAUUUAGUUA | 0.0116 ± 0.0041 | 0.000742 ± 0.0079 | – | 0.308 ± 0.025

Just pre-steady-state target cleavage rate [1, 3], for some of the entries so far:
Row | Sequence | pre-steady-state target cleavage rate [1, 3]
3 | UCCUGGAACAGCUUGCAUAGGAUUUAGUUA | 0.00146 ± 0.0027
4 | UCCUGGUACAGCUAGCAUAGUAUUUACUUA | 0.00108 ± 0.0036
5 | UCCUGGAACAGCUUGCAUAGUAUUUAGAUA | 0.00437 ± 0.0016
6 | UCCUGCUACACGAUGCAUAGUAUUUUCAAA | 0.00241 ± 0.0034

A few values from above.
Value of UCCUGGAUGAGCUUGCAUUGUAUUUACUUA under pre-steady-state target cleavage rate [1, 3]: 0.000743 ± 0.0058
Value of UCCUGGAUCAGCUUGCAUAGUAUAUAGAUA under pre-steady-state target cleavage rate [1, 4]: 0.000518 ± 0.015

Following part.

Row | Sequence | pre-steady-state target cleavage rate [1, 3] | pre-steady-state target cleavage rate [1, 4] | pre-steady-state target cleavage rate [2, 5] | pre-steady-state target cleavage rate [2, 6]
27 | UCCUGCUACAGCUUGCAUAGAAUAUAGUUA | 0.00332 ± 0.0022 | 0.000392 ± 0.015 | 0.00128 ± 0.0043 | –
28 | UCCUGGAACACCUUGCAUAGUAUUUAGUAA | 0.00217 ± 0.0026 | 0.000452 ± 0.015 | 0.00248 ± 0.0034 | –
29 | UCCUGGUACUGCUUGCAUAGUAUUUAGAUA | 0.00378 ± 0.0019 | 0.00045 ± 0.02 | 0.00261 ± 0.0036 | –
30 | UCCUGGAUGAGCUUGCAUAAUAUUUAGUUA | 0.00543 ± 0.0021 | 0.00136 ± 0.0088 | 0.00207 ± 0.0034 | –
31 | UCCUGCUACAGCUUGCAUACUAUUUAGUAA | 0.00476 ± 0.0026 | 0.000519 ± 0.014 | 0.00108 ± 0.0065 | –
32 | UCCUGGAUCAGCUUGCAUAGGAUUUAGUUA | 0.0025 ± 0.0024 | 0.000538 ± 0.013 | 0.00157 ± 0.0037 | –
33 | UCCUGGAUGUGCUUGCAUUGUAUUUACUUA | 0.000176 ± 0.042 | 0.000496 ± 0.016 | 0.00177 ± 0.0044 | –
34 | UCCUCCUUCAGCUUGCAUAGAAUUUAGUUA | 0.00469 ± 0.0021 | 0.000985 ± 0.0058 | 0.00196 ± 0.0029 | –
35 | UCCUGGAUGACCUUGCAUAGUAUUUAGUAA | 0.00129 ± 0.0046 | 0.000657 ± 0.015 | 0.00317 ± 0.0036 | –
36 | UCCUGGAUGUGCUUGCAUAGUAUUUACAAA | 0.00369 ± 0.0033 | 0.000151 ± 0.061 | 0.00159 ± 0.0042 | –
37 | UCCUGCUAAAGCUUGCAUAGUAUUUAGUUA | 0.00411 ± 0.0014 | 0.000139 ± 0.019 | 0.00156 ± 0.005 | –
38 | UCCUCCUACAGCUUGCAUUCUAUUUAGUAA | 0.00145 ± 0.0047 | 0.000276 ± 0.014 | 0.000834 ± 0.006 | –
39 | UCCUGGAUGUCCUUGCAUAGUAUUUGAGUUA | 0.00517 ± 0.0037 | 0.00047 ± 0.014 | 0.00236 ± 0.0036 | –
40 | UCCUGGAUGAGCUUGCAUAGUAUAUAGUAA | 0.00247 ± 0.0032 | 0.000447 ± 0.022 | 0.00245 ± 0.0038 | –
41 | UCCUGGAUGUGCUUGCUUAGUAUUUAGAUA | 0.000721 ± 0.0056 | 0.000129 ± 0.043 | 0.00296 ± 0.0032 | –
42 | UCCUGGAUCAGCUUGCAUAGUAUUAUGAAA | 0.00116 ± 0.0033 | 0.000276 ± 0.018 | 0.000969 ± 0.0065 | –
43 | UCCUCCUACAGCUUGCAUACUUUUUAGUUA | 0.00233 ± 0.0026 | 0.000421 ± 0.01 | 0.00203 ± 0.0031 | –
44 | UCCUGGUACAGGUUGCAUAGUAUUUAGAUA | 0.00271 ± 0.0024 | 0.000451 ± 0.02 | 0.00249 ± 0.0035 | –
45 | UCCUGGAACAGCUUGCAUAGUAUAUAGUAA | 0.00251 ± 0.0017 | 0.000705 ± 0.012 | 0.003 ± 0.0032 | –
46 | UCCUGCUACAGCUUGCAUAGAAUUUUGUUA | 0.00457 ± 0.0019 | 0.00041 ± 0.018 | 0.00145 ± 0.0056 | –
47 | UCCUCCUACAGCUAGCAUAGAAUUUAGUUA | 0.00325 ± 0.0019 | 0.00079 ± 0.0069 | 0.00134 ± 0.0042 | –
48 | UCCUGGUACUGCUUGCAUAGUAUUUAGAAA | 0.00409 ± 0.0019 | 0.000547 ± 0.013 | 0.00126 ± 0.0046 | –
49 | UCCUGCUACAGCUUGGAUAGUAUUUAGAUA | 0.00339 ± 0.001 | 0.000408 ± 0.011 | 0.00169 ± 0.0034 | –
50 | UCCUGGAACAGCUUGCAUUGUAUUUAGAAA | 0.00376 ± 0.0021 | 0.000134 ± 0.054 | 0.00111 ± 0.0057 | –
51 | UCCUGGUACAGCUUGGCAUAGUAUUUAGUUA | 0.05 ± 0.016 | 0.00142 ± 0.008 | – | 0.4 ± 0.093

Source: the supplement of paper PMC10338343
